Percent effect of library compounds

By UniProt entry, the sequences of proteins in these tests, tags left out. Residues count along the entry.
UniProt P9WPC5, whole entry: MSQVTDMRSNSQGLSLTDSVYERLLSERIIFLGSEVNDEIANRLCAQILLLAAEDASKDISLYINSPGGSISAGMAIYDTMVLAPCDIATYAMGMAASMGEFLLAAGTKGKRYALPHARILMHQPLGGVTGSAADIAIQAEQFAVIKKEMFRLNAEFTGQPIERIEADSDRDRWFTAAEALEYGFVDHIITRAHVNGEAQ
UniProt P9WPC3, whole entry partner: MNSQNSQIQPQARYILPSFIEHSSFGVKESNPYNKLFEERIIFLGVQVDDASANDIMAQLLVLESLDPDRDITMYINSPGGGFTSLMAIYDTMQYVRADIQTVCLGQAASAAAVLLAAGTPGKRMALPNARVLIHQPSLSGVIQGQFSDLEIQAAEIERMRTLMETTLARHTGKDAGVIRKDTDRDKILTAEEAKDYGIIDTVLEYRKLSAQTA
UniProt Q4DA54, 1-478: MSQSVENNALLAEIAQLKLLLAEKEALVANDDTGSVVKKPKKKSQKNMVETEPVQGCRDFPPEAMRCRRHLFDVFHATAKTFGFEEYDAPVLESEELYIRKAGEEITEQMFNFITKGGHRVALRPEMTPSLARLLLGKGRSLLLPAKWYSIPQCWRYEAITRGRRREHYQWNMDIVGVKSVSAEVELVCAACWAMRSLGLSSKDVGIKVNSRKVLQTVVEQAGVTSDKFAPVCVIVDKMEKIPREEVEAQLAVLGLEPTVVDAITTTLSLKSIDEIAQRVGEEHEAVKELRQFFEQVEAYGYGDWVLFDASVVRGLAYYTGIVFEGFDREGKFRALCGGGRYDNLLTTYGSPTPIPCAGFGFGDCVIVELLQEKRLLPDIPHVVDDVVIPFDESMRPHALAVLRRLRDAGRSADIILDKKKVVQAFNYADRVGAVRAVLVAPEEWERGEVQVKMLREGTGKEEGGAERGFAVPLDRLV
UniProt Q8IDJ8, 1-583: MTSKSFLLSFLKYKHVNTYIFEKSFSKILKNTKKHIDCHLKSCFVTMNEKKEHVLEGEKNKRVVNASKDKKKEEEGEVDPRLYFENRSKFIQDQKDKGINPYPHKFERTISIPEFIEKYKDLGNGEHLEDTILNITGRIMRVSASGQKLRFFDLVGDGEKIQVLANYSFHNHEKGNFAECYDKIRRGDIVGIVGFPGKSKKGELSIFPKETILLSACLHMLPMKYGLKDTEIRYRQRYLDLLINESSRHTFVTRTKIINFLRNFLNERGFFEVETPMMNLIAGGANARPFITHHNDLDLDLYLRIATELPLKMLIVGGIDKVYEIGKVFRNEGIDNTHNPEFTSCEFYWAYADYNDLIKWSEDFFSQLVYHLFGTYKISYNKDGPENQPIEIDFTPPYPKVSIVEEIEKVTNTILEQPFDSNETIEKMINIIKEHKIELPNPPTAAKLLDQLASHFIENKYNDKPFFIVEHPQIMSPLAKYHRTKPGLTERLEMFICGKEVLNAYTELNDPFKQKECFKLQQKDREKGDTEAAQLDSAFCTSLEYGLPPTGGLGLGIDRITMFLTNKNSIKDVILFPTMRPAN
UniProt I6X8D2, whole entry: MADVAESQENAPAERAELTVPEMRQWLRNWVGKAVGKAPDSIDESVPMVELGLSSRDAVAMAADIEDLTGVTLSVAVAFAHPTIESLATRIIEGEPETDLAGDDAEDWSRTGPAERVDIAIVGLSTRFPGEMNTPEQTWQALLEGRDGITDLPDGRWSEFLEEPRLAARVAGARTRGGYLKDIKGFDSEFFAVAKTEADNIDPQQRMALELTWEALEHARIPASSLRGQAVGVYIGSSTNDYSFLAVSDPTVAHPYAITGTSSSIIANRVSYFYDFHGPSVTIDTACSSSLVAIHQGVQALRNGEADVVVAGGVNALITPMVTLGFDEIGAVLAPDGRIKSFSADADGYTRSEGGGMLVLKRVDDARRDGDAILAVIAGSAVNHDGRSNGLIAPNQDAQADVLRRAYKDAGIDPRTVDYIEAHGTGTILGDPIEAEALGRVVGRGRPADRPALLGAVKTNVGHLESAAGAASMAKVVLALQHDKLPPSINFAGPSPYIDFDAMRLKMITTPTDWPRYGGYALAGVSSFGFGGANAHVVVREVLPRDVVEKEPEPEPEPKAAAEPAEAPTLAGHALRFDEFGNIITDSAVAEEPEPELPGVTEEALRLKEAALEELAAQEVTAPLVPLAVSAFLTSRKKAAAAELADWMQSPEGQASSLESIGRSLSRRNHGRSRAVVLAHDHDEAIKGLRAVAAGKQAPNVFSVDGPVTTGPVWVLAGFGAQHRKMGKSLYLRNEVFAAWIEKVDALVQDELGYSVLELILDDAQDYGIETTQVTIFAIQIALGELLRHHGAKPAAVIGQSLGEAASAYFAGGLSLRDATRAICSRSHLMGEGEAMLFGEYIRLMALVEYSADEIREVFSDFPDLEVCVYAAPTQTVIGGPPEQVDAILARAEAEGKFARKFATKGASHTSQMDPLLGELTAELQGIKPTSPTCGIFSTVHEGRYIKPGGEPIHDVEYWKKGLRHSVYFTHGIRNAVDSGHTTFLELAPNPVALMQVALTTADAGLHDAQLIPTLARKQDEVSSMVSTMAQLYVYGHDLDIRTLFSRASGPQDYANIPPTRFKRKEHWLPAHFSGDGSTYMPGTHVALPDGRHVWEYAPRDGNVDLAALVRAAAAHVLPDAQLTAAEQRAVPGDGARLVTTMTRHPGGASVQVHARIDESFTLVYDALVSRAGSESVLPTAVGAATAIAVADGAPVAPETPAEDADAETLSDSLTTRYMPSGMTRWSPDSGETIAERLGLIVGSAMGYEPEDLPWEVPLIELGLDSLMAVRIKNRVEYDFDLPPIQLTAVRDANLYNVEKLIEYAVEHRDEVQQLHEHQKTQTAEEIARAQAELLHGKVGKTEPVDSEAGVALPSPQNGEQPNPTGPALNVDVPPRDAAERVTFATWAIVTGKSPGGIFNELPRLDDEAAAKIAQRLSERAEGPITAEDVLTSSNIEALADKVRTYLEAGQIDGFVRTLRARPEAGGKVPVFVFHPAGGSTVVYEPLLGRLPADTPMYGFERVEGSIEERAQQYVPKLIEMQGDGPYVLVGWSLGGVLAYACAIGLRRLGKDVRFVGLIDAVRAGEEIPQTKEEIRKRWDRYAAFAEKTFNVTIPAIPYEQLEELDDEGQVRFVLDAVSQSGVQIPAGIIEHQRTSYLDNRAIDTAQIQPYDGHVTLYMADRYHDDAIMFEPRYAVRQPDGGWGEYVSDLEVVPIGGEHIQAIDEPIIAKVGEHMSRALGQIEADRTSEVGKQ

From ChEMBL document CHEMBL3988442, “University of Dundee, Small-Polar-MMV Screening Library” (2021).

A: 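ClpP1P2, Mycobacterium tuberculosis (UniProt P9WPC5 and UniProt P9WPC3). Protease assay of ClpP1P2, read by the AMC dye that it sets free. Tested at 50 µM. Higher reads as stronger inhibition, judged from the few compounds that gave an IC50. Most other retested compounds had strongly negative values. Of about 69,000 compounds tested this way, about 10 (0.015%) reached 50% or more in at least one test.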
B: 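Histidine-tRNA ligase, Trypanosoma cruzi CL Brener (UniProt Q4DA54). Enzyme assay of histidyl-tRNA synthetase; the read-out is not stated. Compounds at 30 µM. Higher reads as stronger inhibition (inferred: compounds with an IC50 in retests scored well above the rest). Of about 69,000 compounds tested this way, about 31 (0.045%) reached 50% or more in at least one test.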
C: 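Lysine-tRNA ligase, Plasmodium falciparum 3D7 (UniProt Q8IDJ8). Enzyme assay of the cytosolic lysyl-tRNA synthetase in 384-well plates, read by luminescence. Compounds at 30 µM. Direction is inferred from only a few compounds that gave an IC50; most scored high, so higher reads as stronger inhibition. Size under these conditions: about 69,000 compounds, about 49 of them at 50% or above in at least one test.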
D: 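Polyketide synthase Pks13, Mycobacterium tuberculosis (UniProt I6X8D2). Enzyme assay of the thioesterase domain of polyketide synthase 13; the read-out is not stated. Tested at 30 µM. Higher reads as stronger inhibition (inferred from which compounds were picked for retests). About 67,000 compounds were tested under these conditions; 0.46% (about 300) showed 50% or more at least once.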

Each number is a percent effect as filed. The controls that fix the scale are not given in the record; negative values are as filed. The compounds are a random part of those screened. A dash means the value is not listed here; it may have been measured.

Compound	A	B	C	D
Cc1csc(CCNC(=O)c2cc3c(nc2O)CCC(C)C3)n1 (centres unmarked)	0.8375%	5.682%	4.143%	9.108%
CC1N(c2cnn(C)c2)C(=O)COC12CCN(Cc1ccoc1)CC2 (centres unmarked)	9.425%	1.676%	3.197%	-6.855%
O=C(NC1CC1)N(CCc1ccccc1)C1CCOC1 (centres unmarked)	-1.35%	1.961%	4.988%	-19.42%
Cc1ccc(C)c(OCC(=O)NC2CCN(c3ccccn3)CC2)c1	-15.82%	8.808%	0.05873%	-11.39%
Cc1nc(C)n(CC2CCCN(CCCOc3ccccc3)C2)n1 (centres unmarked)	1.102%	6.391%	-4.21%	-13%
c1coc(-c2noc(CN3CC(n4cccn4)C3)n2)c1	1.471%	-3.396%	-0.4728%	-17.93%
CC(C1CCN(Cc2ccccc2OC(F)F)CC1)N1CCOCC1 (centres unmarked)	-3.275%	-2.128%	2.346%	-25.06%
N#Cc1cccc(OCC(=O)N(Cc2ccncc2)C2CC2)c1	2.082%	9.827%	3.086%	-12.39%
CC(C)SCC(=O)N1CCc2c(nc(N(C)C)nc2N(C)C)C1	-7.316%	3.734%	5.606%	-13.15%
NC(=O)c1c[nH]nc1NC(=O)c1cccc(Cl)c1	10.74%	8.092%	3.875%	5.805%
CCCn1nc(C)c(C(=O)N(C)[C@@H]2CC[C@@H](OC)[C@@H]2O)c1C	9.935%	11.36%	-0.09959%	11.89%
CO[C@H]1CC[C@H]2[C@H]1OCCN2Cc1ccc(F)c(F)c1	3.919%	1.905%	-6.109%	-
COc1cccc(OCC2CCCN(C(=O)c3cc(C)n[nH]3)C2)c1 (centres unmarked)	-13.57%	2.941%	2.474%	-3.853%
Cc1nc(CN2CCO[C@@H]3CC(COc4ccccn4)C[C@H]32)cs1 (some centres unmarked)	-7.375%	3.333%	2.203%	9.851%
Cc1nc2ccccc2n(Cc2nnnn2C2CC2)c1=O	15.76%	10.39%	2.784%	-23.92%
CCN1CCn2c(C)cnc2C12CCN(C(=O)NC)CC2	11.95%	6.25%	1.422%	-38.99%
Cc1cc(C(=O)O)cc(S(=O)(=O)Nc2ccc3c(c2)OCO3)c1C	29.35%	4.58%	0.2344%	-6.021%
CCC(=O)N1CCC(c2ncc(C(=O)Nc3ccccc3)c(C)n2)C1 (centres unmarked)	-23.01%	4.52%	2.367%	-0.8373%
CCOc1ccnc(N2CCN(C(=O)c3ccc(C#N)cc3)CC2)n1	-15.06%	1.734%	1.627%	-15.25%
CNC(=O)C(CCSC)NC(=O)c1ccc2ccccc2n1 (centres unmarked)	3.22%	5.202%	10.13%	-13.27%
Cc1ccc(OCC2CCCN(Cc3ccc(CO)o3)C2)cc1 (centres unmarked)	-8.943%	4.706%	-1.962%	9.056%
Cc1cnn(CCNC(C)C(=O)Nc2ccc(Cl)cn2)c1 (centres unmarked)	-8.426%	12.05%	1.479%	-6.793%
CCCc1cc(CNC2CCN(c3nc4ccccc4s3)CC2)on1	-2.358%	12%	1.599%	2.362%
CCCS(=O)(=O)CC(=O)Nc1ccsc1	1.667%	8.642%	8.223%	0.88%
CC(C)CC(=O)N1CCC(c2nnc3n2CCCCC3)CC1	-7.332%	6.716%	1.851%	-4.867%
Cc1cc(C)nc(NC2CC(=O)N(C)C2)n1 (centres unmarked)	-3.753%	2.469%	0.1386%	-3.279%
COc1ccc(CNC(=O)CNc2ccccc2OC)cc1	2.477%	14.47%	0.4224%	-13.97%
CC(=O)N1CCS(=O)(=O)[C@@H]2CCN(CC(C)C)CC[C@@H]21	8.767%	-8.387%	3.498%	-16.77%
O=C(CN1CCCCCCC1=O)NCc1ccccn1	-8.534%	-0.8264%	-3.464%	-2.749%
O=C1CCC2(CCCN(Cc3nnc(C4CC4)o3)C2)CN1CCO (centres unmarked)	1.515%	4%	5.404%	-9.736%
CC(C)COCC(NC(=O)c1cccnc1)c1ccco1 (centres unmarked)	9.493%	3.008%	0.3371%	-53.89%
CC(C)OCc1nn(C)c2c1CCN(CC1CC1)C2	-6.078%	11.11%	4.397%	3.842%

The last 4 entries again:

Compound,A,B,C,D
O=C(CN1CCCCCCC1=O)NCc1ccccn1,-8.534%,-0.8264%,-3.464%,-2.749%
O=C1CCC2(CCCN(Cc3nnc(C4CC4)o3)C2)CN1CCO (centres unmarked),1.515%,4%,5.404%,-9.736%
CC(C)COCC(NC(=O)c1cccnc1)c1ccco1 (centres unmarked),9.493%,3.008%,0.3371%,-53.89%
CC(C)OCc1nn(C)c2c1CCN(CC1CC1)C2,-6.078%,11.11%,4.397%,3.842%